Assay results as given in article PMC6916587, “The roles of factor Va and protein S in formation of the activated protein C/protein S/factor Va inactivation complex” (Journal of Thrombosis and Haemostasis, 2019).

Protein sequences, listed by entry. Tags and fused reporters are not part of them. Lines headed by an entry give the natural chain unless they say otherwise; changes in a name come on top.
UniProt P07225: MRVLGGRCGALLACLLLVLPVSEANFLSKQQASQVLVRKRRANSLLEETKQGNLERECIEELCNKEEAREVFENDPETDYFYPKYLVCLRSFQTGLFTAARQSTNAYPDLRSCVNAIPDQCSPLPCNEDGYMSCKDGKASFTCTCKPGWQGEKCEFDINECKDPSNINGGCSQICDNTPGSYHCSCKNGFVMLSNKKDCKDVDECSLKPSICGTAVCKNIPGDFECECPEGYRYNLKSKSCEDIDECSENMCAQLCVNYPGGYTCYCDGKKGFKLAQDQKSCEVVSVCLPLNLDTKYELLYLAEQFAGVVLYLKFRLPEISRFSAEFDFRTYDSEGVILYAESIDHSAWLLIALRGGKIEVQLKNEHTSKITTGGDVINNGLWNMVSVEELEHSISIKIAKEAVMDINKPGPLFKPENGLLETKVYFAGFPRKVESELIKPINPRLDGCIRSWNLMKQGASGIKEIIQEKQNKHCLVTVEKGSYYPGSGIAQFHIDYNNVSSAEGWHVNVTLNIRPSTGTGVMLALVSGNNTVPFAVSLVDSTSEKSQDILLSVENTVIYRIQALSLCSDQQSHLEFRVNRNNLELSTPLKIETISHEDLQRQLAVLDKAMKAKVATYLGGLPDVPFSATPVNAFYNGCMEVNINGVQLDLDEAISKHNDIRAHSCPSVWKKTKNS
UniProt P12259: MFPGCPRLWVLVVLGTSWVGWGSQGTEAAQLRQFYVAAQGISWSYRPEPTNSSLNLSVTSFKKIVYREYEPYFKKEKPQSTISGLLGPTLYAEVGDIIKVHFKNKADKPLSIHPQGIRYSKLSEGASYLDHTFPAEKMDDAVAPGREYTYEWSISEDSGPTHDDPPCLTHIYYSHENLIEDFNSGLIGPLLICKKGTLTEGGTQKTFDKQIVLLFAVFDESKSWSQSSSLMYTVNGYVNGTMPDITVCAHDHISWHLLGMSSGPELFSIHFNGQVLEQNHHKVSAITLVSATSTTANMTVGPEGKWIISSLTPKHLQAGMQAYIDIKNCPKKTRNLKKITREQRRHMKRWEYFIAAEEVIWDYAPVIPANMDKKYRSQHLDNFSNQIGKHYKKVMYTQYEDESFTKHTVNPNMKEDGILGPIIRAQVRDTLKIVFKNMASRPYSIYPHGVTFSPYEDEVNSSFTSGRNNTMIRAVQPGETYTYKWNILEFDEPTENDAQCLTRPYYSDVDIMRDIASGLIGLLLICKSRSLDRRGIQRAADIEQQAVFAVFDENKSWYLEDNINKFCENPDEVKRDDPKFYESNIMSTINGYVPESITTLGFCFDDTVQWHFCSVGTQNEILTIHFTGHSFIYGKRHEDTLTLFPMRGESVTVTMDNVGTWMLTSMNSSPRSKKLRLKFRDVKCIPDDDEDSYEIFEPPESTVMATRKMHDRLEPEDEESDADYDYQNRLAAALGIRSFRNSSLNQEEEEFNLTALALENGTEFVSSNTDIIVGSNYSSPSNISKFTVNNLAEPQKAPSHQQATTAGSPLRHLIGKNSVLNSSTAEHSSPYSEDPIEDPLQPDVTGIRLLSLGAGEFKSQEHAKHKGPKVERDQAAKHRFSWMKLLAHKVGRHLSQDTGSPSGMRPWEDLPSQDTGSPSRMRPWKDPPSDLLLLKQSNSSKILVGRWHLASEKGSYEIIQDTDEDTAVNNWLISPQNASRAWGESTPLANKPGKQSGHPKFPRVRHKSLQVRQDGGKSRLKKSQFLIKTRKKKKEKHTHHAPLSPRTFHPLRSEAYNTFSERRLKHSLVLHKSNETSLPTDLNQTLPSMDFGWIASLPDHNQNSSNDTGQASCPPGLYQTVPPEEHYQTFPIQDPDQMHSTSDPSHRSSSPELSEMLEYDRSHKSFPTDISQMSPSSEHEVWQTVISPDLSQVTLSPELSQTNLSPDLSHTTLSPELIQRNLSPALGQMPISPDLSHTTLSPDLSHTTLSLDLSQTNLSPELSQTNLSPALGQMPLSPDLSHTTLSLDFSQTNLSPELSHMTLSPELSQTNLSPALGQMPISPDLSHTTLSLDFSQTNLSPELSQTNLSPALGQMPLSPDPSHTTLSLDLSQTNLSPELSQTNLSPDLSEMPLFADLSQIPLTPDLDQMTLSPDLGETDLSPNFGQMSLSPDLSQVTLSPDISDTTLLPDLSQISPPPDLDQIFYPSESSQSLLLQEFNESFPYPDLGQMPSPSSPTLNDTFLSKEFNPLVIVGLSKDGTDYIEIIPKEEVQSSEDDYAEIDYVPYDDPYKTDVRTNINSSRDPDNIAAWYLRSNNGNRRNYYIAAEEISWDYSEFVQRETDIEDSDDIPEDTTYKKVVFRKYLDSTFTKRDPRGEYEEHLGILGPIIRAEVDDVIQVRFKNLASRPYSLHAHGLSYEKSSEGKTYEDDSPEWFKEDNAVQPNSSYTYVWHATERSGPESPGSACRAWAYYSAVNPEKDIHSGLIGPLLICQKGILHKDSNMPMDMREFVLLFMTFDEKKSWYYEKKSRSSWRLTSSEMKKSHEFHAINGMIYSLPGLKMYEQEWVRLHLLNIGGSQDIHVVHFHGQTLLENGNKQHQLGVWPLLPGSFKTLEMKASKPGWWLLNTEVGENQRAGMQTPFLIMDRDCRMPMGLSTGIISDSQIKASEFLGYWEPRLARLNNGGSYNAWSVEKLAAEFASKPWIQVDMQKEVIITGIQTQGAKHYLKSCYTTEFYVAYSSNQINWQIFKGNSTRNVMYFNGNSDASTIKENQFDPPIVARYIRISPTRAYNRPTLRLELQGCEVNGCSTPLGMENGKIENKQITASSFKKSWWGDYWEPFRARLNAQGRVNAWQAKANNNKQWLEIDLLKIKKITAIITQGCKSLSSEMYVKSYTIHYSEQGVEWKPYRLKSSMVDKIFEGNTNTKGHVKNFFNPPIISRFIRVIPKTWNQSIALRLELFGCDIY

Columns and labels:
[1] = target: protein S E36A (UniProt P07225); assay: flow cytometry on phospholipid-coated magnetic beads; phospholipid-coated magnetic beads (125 μg/mL) pre-incubated with 100 nmol/L protein S and/or 0-75 nmol/L FVa at room temperature for 25 min, then 0-75 nmol/L APC-Fluor; MFI of the beads read 1 min (0-5 min) after APC; apparent; both purified
[2] = target: protein S D95A (UniProt P07225); assay: as above

For “activated factor V (FVa), wild type (from UniProt P12259 29-737; P12259 1574-2224)”, the binding [1] was “no binding (tested: 25 nmol/L FVa, 100 nmol/L protein S E36A)” and the binding [2] was “no binding (tested: 25 nmol/L FVa, 100 nmol/L protein S D95A)”.

No constants are given. Whether binding was seen depends on the method and setting.
